Results of single-concentration screens

From ChEMBL document CHEMBL3988442, “University of Dundee, Small-Polar-MMV Screening Library” (2021).

Mtb glucose medium: 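Growth of Mycobacterium tuberculosis over 3 days (7H9 medium with glucose and tyloxapol); the read-out is not stated. Tested at 50 µM. Higher reads as more growth inhibition (inferred: compounds with an IC50 in retests scored well above the rest). Of about 69,000 compounds tested this way, about 760 (1.1%) reached 50% or more in at least one test.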
Mtb cholesterol medium: 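Whole-cell growth test on Mycobacterium tuberculosis, read after 4 days in a medium based on cholesterol and the lipid DPPC; the read-out is not stated. Tested at 50 µM. The record gives no direction; compounds that gave an IC50 in retests scored well above the rest, so higher reads as more growth inhibition. Of about 69,000 compounds tested this way, about 370 (0.54%) reached 50% or more in at least one test.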

The filed quantity is “Percent Effect” (%). The controls that fix the scale are not given in the record; negative values are as filed. The compounds are a random part of those screened. Two or more numbers in one place are separate tests of the same structure; such repeats can differ widely.

| structure | Mtb glucose medium | Mtb cholesterol medium |
|---|---|---|
| `COc1ccsc1C(=O)N1CCCC(n2cncn2)C1` (stereo unspecified) | 9.424% | -6.154% |
| `C1CCC(OCCN2CCN(CCOC3CCCCC3)CC2)CC1` | 19.86% & 4.35% | 0.6633% |
| `CCNC(=O)NC(=O)C(C)N(C)CCOc1ccccc1C` (stereo unspecified) | 23.21% | 5.266% |
| `O=C(O)C(F)(F)F.c1cnc(N2CCCC3(CCN(CC4CCOC4)CC3)C2)nc1` (stereo unspecified) | 17.01% | 1.889% |
| `O=C(CC1CCN(c2cccnn2)CC1)Nc1nncs1` | 11.07% | 19.44% |
| `CNC(=O)C1(C)CN(S(=O)(=O)c2cccc(OC)c2)CCO1` (stereo unspecified) | 20.17% | -7.619% & -2.228% |
| `CCCc1nc(C)c(C(=O)NS(=O)(=O)c2ccc(C#N)cc2)s1` | -0.674% | 8.037% |
| `O=C(O)C1CCN(C[C@H]2CC[C@@H](Cc3ccc4c(c3)OCO4)O2)CC1` | -25.28% | -18.16% |
| `CN1CCCC1CCNC(=O)Nc1ccccc1` (stereo unspecified) | -27.82% | -19.2% |
| `CC(=O)NC(C)(C)C(=O)Nc1ncc(Cc2ccc(C)c(F)c2)s1` | 10.1% | 11.99% |
| `CCc1nnc2n1CCN(C(=O)c1cnn(C)c1C1CC1)C2` | 1.983% | -17.04% |
| `Nc1cc(C(=O)N2CCC(Oc3cccc(C(F)(F)F)c3)CC2)ccn1` | -0.2286% & 4.815% | 17.9% |
| `COCc1nc2cc(NCc3sc(C)nc3C)ccc2o1` | 5.206% & 14% | 7.558% |
| `O=C(NCCc1c[nH]cn1)c1ccccc1C1CCNC1` (stereo unspecified) | -35.38% & -7.893% | -15.14% |
| `CN(CCc1nc2cc(Cl)ccc2[nH]1)C(=O)c1ncn[nH]1` | -11.18% | 3.152% |
| `COc1ccc(-c2cnc(N)nc2C2CCCNC2)cc1.Cl` (stereo unspecified) | -0.03159% | 19.26% & 10% |
| `O=C(C1CCC2(CCN(CC3CCOCC3)CC2)O1)N1CCCCO1.O=C(O)C(F)(F)F` (stereo unspecified) | 10.78% | 29.75% |
| `CCC(CNC(=O)N1CCOCC2(CCOCC2)C1)c1ccccc1` (stereo unspecified) | -8.034% & -1.435% | -7.937% |
| `CC(C)C(NC(=O)Cn1ccc(=O)n(C)c1=O)c1ccc(F)cc1` (stereo unspecified) | -5.124% | -4.384% |
| `O=C(c1c2c(NCC3CC3)ncnc2n2ccccc12)N1CCOCC1` | 23.74% | 5.347% |
| `CC(C)N1CCc2c(C#N)c(NCc3ccco3)n3cnnc3c2C1` | -7.622% & 17.23% | -5.406% |
| `CC(C)N1CCN(C(=O)c2ccccc2NCc2cccnc2)CC1` | -6.116% | -14.57% |
| `COCCNC(=O)c1ccnn1-c1ccc2ccccn12` | 1.302% & -1.434% | 19.25% |
| `O=C(O)C(F)(F)F.[H][C@@]12CCN(C(=O)c3sccc3C)C[C@]1([H])[C@@H](CN(C)C)OC2` | 6.576% | -8.297% |
| `CC(C1CCN(Cc2cnn(C)c2C2CC2)CC1)N1CCN(C)CC1` (stereo unspecified) | 0.9496% | 13.03% |
| `OC(CN(Cc1ccccc1)Cc1cscn1)c1cccs1` (stereo unspecified) | -13.95% | -29.66% |
| `CN(Cc1ccccn1)C1CCCN(Cc2noc(C3CC3)n2)C1` (stereo unspecified) | 7.855% | -5.244% |
| `COCCN(Cc1coc(-c2cccc(Cl)c2)n1)C1CC1` | 24.59% | 3.426% |
| `COc1cc(F)c(NC(=O)N(C)CCNC(=O)N(C)C)cc1F` | -6.248% | -25.84% |
| `CC(NCCCn1cccn1)c1ccc(N2CCCS2(=O)=O)cc1` (stereo unspecified) | 19.4% | 9.583% |
| `CN(Cc1nnc(C2CC2)o1)C1CCCN(c2cccnn2)C1` (stereo unspecified) | 8.527% | -12.75% |
| `Cc1cc(C[C@@H]2COC[C@H]2NCc2ccccc2C(F)(F)F)on1.O=C(O)CC(O)(CC(=O)O)C(=O)O` | 23.91% | 2.348% |
| `CC(C)N(CC(=O)O)Cc1cccc(Br)c1.Cl` | -2.54% & -0.5989% | -23.14% |
| `COCCN1CCC(NC(=O)Cn2cc(C)c3ccccc32)CC1` | -18.58% | -38.78% |
| `CCn1ccnc1CNCC1CCN(CC(O)c2ccccc2)CC1` (stereo unspecified) | -12.73% | 9.017% |
| `COc1ccccc1[S+]([O-])CC(=O)NCc1cc(F)cc(F)c1` (stereo unspecified) | 5.644% | 16.95% |
| `[H][C@]12CC[C@]([H])(CN(C(=O)c3cc(F)cc(Cl)c3)C1)N(Cc1ccccc1)C2` | 13.36% | 13.95% |
| `O=C(c1cccc(N2CCCC2=O)c1)N1CCCC(n2cncn2)C1` (stereo unspecified) | 11.51% | -15.82% |
| `[H][C@@]12CNC[C@]1([H])N(Cc1ccoc1)CCO2` | -11.02% & -6.222% | -0.8297% |
| `O=C(c1ccc2[nH]cnc2c1)N1CCC(Oc2ccccn2)CC1` | -5.565% | -9.745% |
| `Cc1nc(O)cc(C2CCN(Cc3ccc(F)c(F)c3)C2)n1.O=C(O)CC(O)(CC(=O)O)C(=O)O` (stereo unspecified) | 16.89% | 0.7687% |
| `Cn1cncc1C(=O)N1CCOC2(COCCN(CC3CC3)C2)C1.O=C(O)C(F)(F)F` (stereo unspecified) | 7.528% | -8.793% |
| `COc1ccccc1C(=O)Nc1c(F)c(C(=O)NCCC(C)C)nn1C` | -2.476% | -3.856% |
| `Cc1nc(CN2CCN(C(=O)Cc3cccc(Cl)c3)CC2)no1` | 4.065% & 2.917% | -3.105% |
| `Cc1nc(C(NC(=O)c2cc(C(C)C)[nH]n2)c2ccccc2)n[nH]1` (stereo unspecified) | 23.19% | 10.56% |
| `O=C(NCc1ccc(C(=O)N2CCCC2)cc1)c1cn2c(n1)CNCC2` | 7.062% & 6.398% | -5.421% |
| `c1cc2c(c(-c3cc(N4CCOCC4)ncn3)c1)CCNC2` | -6.347% | 10.03% |
| `O=C(NCc1cc2n(n1)CCCNC2)c1cn2cc(Cl)ccc2n1` | 14.63% | 4.79% |
| `COc1ccc(C2=C(C)C(N3CCc4ccccc4C3)=NS2(=O)=O)cc1` | -12.7% | 15.08% |
| `COCCCC1CCN([C@@H]2c3ccccc3C3(CCNCC3)[C@H]2O)CC1` | 35.63% | 14.47% |
| `CC(C)Nc1nc2c(cc1C(=O)N(C)C)CCNCC2.O=C(O)C(F)(F)F.O=C(O)C(F)(F)F` | 39.61% | 27.94% |
| `CN(C)CC(=O)N1CCC2(CC1)COC(COc1ccccn1)C2.O=C(O)C(F)(F)F.O=C(O)C(F)(F)F` (stereo unspecified) | 9.091% | 2.941% |
| `Cn1c2ccccc2c2ncn(CCCN3CCOCC3)c(=O)c21` | -34.49% | -28.6% |
| `Cc1ccc(NC2CCCN(CCc3ccccc3)C2)nn1` (stereo unspecified) | -31.9% | -20.01% & -10.89% |
| `CCC(=O)Nc1ccc2c(c1)C1(CCOCC1)CN2CCF.O=C(O)C(F)(F)F` | -23.78% | -4.3% |
| `Cc1cc(C)c(C(=O)NC2CCCc3nc(N(C)C)ncc32)cc1C` (stereo unspecified) | 8.248% | -1.363% & -2.884% |
| `Cc1nc(NCCO)cc(C(C)Cn2nc(C)c(C)c2C)n1` (stereo unspecified) | -16.54% | 1.911% & 15.1% |
| `CNC(=O)CC1CC2(CCN(S(C)(=O)=O)CC2)c2ccccc21` (stereo unspecified) | 10.58% | 0.6282% |
| `CCCc1cc(C(=O)NC2CCCCNC2=O)[nH]n1` (stereo unspecified) | 16.24% | -2.404% |
| `Cc1ccc(NC2CCN(C(=O)CCNS(C)(=O)=O)CC2)nn1` | 2.16% | -4.776% |
| `CC(=O)N1CCc2c(nc(N(C)C)nc2N(C)CCCC2CCCO2)C1` (stereo unspecified) | -36.7% | -42.25% & -11.87% |
| `CCOc1ccc(CC(=O)N2CCCC(n3nc(C)nc3C)C2)cc1` (stereo unspecified) | 19.39% | -10.61% |
| `Cc1ccc(O)c(CN(Cc2ccccc2)Cc2nccs2)n1` | 5.544% & 3.939% | 3.391% |
| `Cc1cc(NC(=O)CN2CCn3c(nnc3C(C)C)C2)on1` | -9.626% | 2.447% |
| `Cn1cc(CN2CCOCC3(C2)CN(c2ccccc2)C(=O)CO3)cn1.O=C(O)C(F)(F)F` (stereo unspecified) | -10.28% | -16.04% |
| `CCn1ccnc1CN1CCN(C(C)C(=O)NCC(F)(F)F)CC1` (stereo unspecified) | -2.118% | 17.89% |
| `CCN1CC[C@]2(CN(C(=O)C3CCOCC3)C[C@H]2c2ccccc2)C1=O` | -4.69% & -25.62% | -16.3% |

Repeated from the top, 8 entries:

For COc1ccsc1C(=O)N1CCCC(n2cncn2)C1 (stereo unspecified) the result was Mtb glucose medium: 9.424%; Mtb cholesterol medium: -6.154%.
For C1CCC(OCCN2CCN(CCOC3CCCCC3)CC2)CC1 the result was Mtb glucose medium: 19.86% & 4.35%; Mtb cholesterol medium: 0.6633%.
For CCNC(=O)NC(=O)C(C)N(C)CCOc1ccccc1C (stereo unspecified) the result was Mtb glucose medium: 23.21%; Mtb cholesterol medium: 5.266%.
For O=C(O)C(F)(F)F.c1cnc(N2CCCC3(CCN(CC4CCOC4)CC3)C2)nc1 (stereo unspecified) the result was Mtb glucose medium: 17.01%; Mtb cholesterol medium: 1.889%.
For O=C(CC1CCN(c2cccnn2)CC1)Nc1nncs1 the result was Mtb glucose medium: 11.07%; Mtb cholesterol medium: 19.44%.
For CNC(=O)C1(C)CN(S(=O)(=O)c2cccc(OC)c2)CCO1 (stereo unspecified) the result was Mtb glucose medium: 20.17%; Mtb cholesterol medium: -7.619% & -2.228%.
For CCCc1nc(C)c(C(=O)NS(=O)(=O)c2ccc(C#N)cc2)s1 the result was Mtb glucose medium: -0.674%; Mtb cholesterol medium: 8.037%.
For O=C(O)C1CCN(C[C@H]2CC[C@@H](Cc3ccc4c(c3)OCO4)O2)CC1 the result was Mtb glucose medium: -25.28%; Mtb cholesterol medium: -18.16%.